These are yes or no findings as the source states them, for the method shown. Binding seen in cells or lysates may run through a third protein. Some binding calls cover weakened binding; strength is not graded here.

Amino acid sequences for entries named in this document (tags omitted).
UniProt P06748: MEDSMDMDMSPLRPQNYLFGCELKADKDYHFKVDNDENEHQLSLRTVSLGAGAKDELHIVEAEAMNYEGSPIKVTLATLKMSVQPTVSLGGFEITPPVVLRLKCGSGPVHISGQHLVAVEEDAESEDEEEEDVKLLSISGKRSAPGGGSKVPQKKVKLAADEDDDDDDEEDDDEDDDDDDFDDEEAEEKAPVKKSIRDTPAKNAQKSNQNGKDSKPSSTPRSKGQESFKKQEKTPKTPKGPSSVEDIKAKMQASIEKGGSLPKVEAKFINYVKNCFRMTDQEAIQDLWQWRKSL
UniProt Q61937: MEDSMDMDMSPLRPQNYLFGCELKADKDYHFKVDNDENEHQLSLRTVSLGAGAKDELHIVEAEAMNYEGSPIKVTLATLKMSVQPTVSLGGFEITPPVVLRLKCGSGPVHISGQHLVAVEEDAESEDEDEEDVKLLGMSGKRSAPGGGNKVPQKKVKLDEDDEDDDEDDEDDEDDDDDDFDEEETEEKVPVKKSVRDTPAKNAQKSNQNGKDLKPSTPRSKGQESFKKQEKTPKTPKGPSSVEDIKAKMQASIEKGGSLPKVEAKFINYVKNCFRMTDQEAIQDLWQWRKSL

Assay [1] addresses T1, RABL6A (RAB-like 6 isoform A), endogenous mouse (mouse (endogenous in p53-/- MEFs)) (UniProt Q5U3K5).
T1 sequence: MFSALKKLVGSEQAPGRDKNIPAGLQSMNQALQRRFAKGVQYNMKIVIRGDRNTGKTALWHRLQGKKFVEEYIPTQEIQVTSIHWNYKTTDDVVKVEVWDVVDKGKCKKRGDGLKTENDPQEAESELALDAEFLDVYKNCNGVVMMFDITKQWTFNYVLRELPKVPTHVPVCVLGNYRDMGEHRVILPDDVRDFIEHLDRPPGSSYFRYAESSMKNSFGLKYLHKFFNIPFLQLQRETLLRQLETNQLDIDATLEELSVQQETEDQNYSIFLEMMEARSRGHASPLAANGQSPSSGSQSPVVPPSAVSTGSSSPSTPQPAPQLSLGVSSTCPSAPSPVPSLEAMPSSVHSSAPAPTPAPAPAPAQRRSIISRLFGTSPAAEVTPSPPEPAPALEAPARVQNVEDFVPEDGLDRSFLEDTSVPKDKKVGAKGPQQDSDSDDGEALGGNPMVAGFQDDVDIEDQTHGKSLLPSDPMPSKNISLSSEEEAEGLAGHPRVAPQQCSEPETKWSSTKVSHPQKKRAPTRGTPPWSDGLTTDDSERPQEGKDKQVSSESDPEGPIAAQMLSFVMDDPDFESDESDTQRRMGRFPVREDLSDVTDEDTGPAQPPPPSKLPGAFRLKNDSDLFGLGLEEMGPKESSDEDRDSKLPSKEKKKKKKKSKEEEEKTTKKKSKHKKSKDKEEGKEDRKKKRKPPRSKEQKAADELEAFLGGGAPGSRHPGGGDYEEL
As to the kind of experiment: co-IP; endogenous proteins; nuclear and cytosolic fractions of p53-/- MEFs; IP with RABL6 antibodies versus control IgG, western blot for NPM and ARF.

Assay [2] addresses GST-NPM recombinant protein (UniProt P06748). As to the kind of experiment: pull-down; 35S-labeled in vitro translated RABL6A on GST-NPM recombinant protein versus GST control; autoradiography; only the target purified.

For “nucleophosmin/B23 (NPM), endogenous mouse (from UniProt Q61937 1-292)”, the binding result in assay [1] was “binds”.

B1: ARF (Alternative Reading Frame protein), endogenous mouse (protein, UniProt Q64364 1-169)
chain: MGRRFLVTVRIQRAGRPLQERVFLVKFVRSRRPRTASCALAFVNMLLRLERILRRGPHRNPGPGDDDGQRSRSSSSAQLRCRFELRGPHYLLPPGARRSAGRLPGHAGGAARVRGSAGCARCLGSPAARLGPRAGTSRHRAIFAFRWVLFVFRWVVFVYRWERRPDRRA
With B1, the binding result in assay [1] is “binds”.

B2: in vitro translated RABL6A (protein, UniProt Q3YEC7 1-729)
chain: MFSALKKLVGSDQAPGRDKNIPAGLQSMNQALQRRFAKGVQYNMKIVIRGDRNTGKTALWHRLQGRPFVEEYIPTQEIQVTSIHWSYKTTDDIVKVEVWDVVDKGKCKKRGDGLKMENDPQEAESEMALDAEFLDVYKNCNGVVMMFDITKQWTFNYILRELPKVPTHVPVCVLGNYRDMGEHRVILPDDVRDFIDNLDRPPGSSYFRYAESSMKNSFGLKYLHKFFNIPFLQLQRETLLRQLETNQLDMDATLEELSVQQETEDQNYGIFLEMMEARSRGHASPLAANGQSPSPGSQSPVVPAGAVSTGSSSPGTPQPAPQLPLNAAPPSSVPPVPPSEALPPPACPSAPAPRRSIISRLFGTSPATEAAPPPPEPVPAAEGPATVQSVEDFVPDDRLDRSFLEDTTPARDEKKVGAKAAQQDSDSDGEALGGNPMVAGFQDDVDLEDQPRGSPPLPAGPVPSQDITLSSEEEAEVAAPTKGPAPAPQQCSEPETKWSSIPASKPRRGTAPTRTAAPPWPGGVSVRTGPEKRSSTRPPAEMEPGKGEQASSSESDPEGPIAAQMLSFVMDDPDFESEGSDTQRRADDFPVRDDPSDVTDEDEGPAEPPPPPKLPLPAFRLKNDSDLFGLGLEEAGPKESSEEGKEGKTPSKEKKKKKKKGKEEEEKAAKKKSKHKKSKDKEEGKEERRRRQQRPPRSRERTAADELEAFLGGGAPGGRHPGGGDYEEL
modifications: 35S-labeled
B2: the binding result in assay [2] is reported as “binds”.

For the origin of these results see article PMC3839920.
